Assay results reported in patent publication US8637511B2, “Aminopyrimidines useful as kinase inhibitors” (Vertex Pharmaceuticals Incorporated, priority 2005, dated 2014).
Some of these results come from one statement about several compounds together.

test system: not listed separately; experiment: Microsomal stability assay; format: in vitro ADME; conditions: after 30 minutes

| SMILES | stability to human liver microsomes, % remaining [%] |
| --- | --- |
| Cc1cc(Nc2cc(N3CC(F)(C4CC4)C3)nc(Sc3ccc4nc(C(F)(F)F)cn4c3)n2)[nH]n1 [Compound 190] | > 50 |
| Cc1cc(Nc2cc(N3CC(C)(O)C3)nc(Sc3ccc(NC(=O)c4ccccc4C(F)(F)F)cc3)n2)[nH]n1 [Compound 115] | > 50 |
| Cc1cc(Nc2cc(N3CCC3)nc(Sc3ccc(C(=O)N4CCCC4)cc3)n2)n[nH]1 [Compound 22] | > 50 |
| Cc1cc(Nc2cc(N3CC(F)(C4CC4)C3)nc(Sc3ccc4nc(C(F)(F)F)[nH]c4c3)n2)[nH]n1 [Compound 202] | > 50 |
| Cc1cc(Nc2cc(N3CC(C#N)C3)nc(Sc3ccc(NC(=O)c4ccccc4Cl)cc3)n2)n[nH]1 [Compound 16] | > 50 |
| Cc1cc(Nc2cc(N3CCC3)nc(Sc3ccc(NC(=O)c4ccncc4C(F)(F)F)cc3)n2)[nH]n1 [Compound 146] | > 50 |
| CC1=NN=C(Nc2cc(N3CCC3)nc(Sc3ccc(NC(=O)c4ccccc4Cl)cc3)n2)C1 [Compound 5] | > 50 |
| Cc1cc(Nc2nc(Sc3ccc(NC(=O)c4ccccc4Cl)cc3)nc(N3CCC3)c2F)[nH]n1 [Compound 192] | > 50 |
| CCc1cc(Nc2cc(N3CCC3)nc(Sc3ccc(NC(=O)c4ccccc4Cl)cc3)n2)n[nH]1 [Compound 64] | > 50 |
| Cc1cc(Nc2cc(N3CC(OC(C)(C)C)C3)nc(Sc3ccc(NC(=O)c4ccccc4Cl)cc3)n2)[nH]n1 [Compound 66] | > 50 |
| CCC(=O)Nc1ccc(Sc2nc(Nc3cc(C)n[nH]3)cc(N3CC4(C3)OCC4(C)C)n2)cc1 [Compound 92] | > 50 |
| Cc1cc(Nc2nc(Sc3ccc(NC(=O)CC(F)(F)F)cc3)nc(N3CC(F)(C4CC4)C3)c2F)[nH]n1 [Compound 178] | > 50 |
| Cc1cc(Nc2cc(N3CCC3)nc(Sc3ccc(NC(=O)Cc4ccccc4)cc3)n2)n[nH]1 [Compound 35] | > 50 |
| Cc1cc(Nc2cc(N3CCC3)nc(Sc3ccc(NC(=O)CC(F)(F)F)cc3)n2)n[nH]1 [Compound 40] | > 50 |
| CCC(=O)Nc1ccc(Sc2nc(Nc3cc(C4CC4)[nH]n3)cc(N3CC(O)(C4CC4)C3)n2)cc1 [Compound 102] | > 50 |
| Cc1cc(Nc2cc(N3CCC3)nc(Sc3ccc(NC(=O)Cc4ccccc4Cl)cc3)n2)[nH]n1 [Compound 57] | > 50 |
| CC1=NN=C(Nc2cc(N3CCC3)nc(Sc3ccc(NC(=O)c4cccc(Cl)c4F)cc3)n2)C1 [Compound 61] | > 50 |

same assay, conditions: after 60 minutes

| SMILES | stability to human liver microsomes, % remaining [%] |
| --- | --- |
| Cc1cc(Nc2cc(N3CC(C)(C#N)C3)nc(Sc3ccc(NC(=O)c4ccccc4C(F)(F)F)cc3)n2)[nH]n1 [Compound 122] | > 50 |
| Cc1cc(Nc2cc(N3CCC3)nc(Sc3ccc(NC(=O)c4c(Cl)cccc4Cl)cc3)n2)n[nH]1 [Compound 46] | > 50 |
| Cc1cc(Nc2cc(N3CC(F)(C4CC4)C3)nc(Sc3ccc4nc(C)ccc4c3)n2)[nH]n1 [Compound 154] | > 50 |
| Cc1cc(Nc2cc(N3CC(C)(O)C3)nc(Sc3ccc(NC(=O)c4ccccc4C(F)(F)F)cc3)n2)[nH]n1 [Compound 115] | > 50 |
| Cc1cc(Nc2cc(N3CC(F)(C4CC4)C3)nc(Sc3ccc4nc(C(F)(F)F)[nH]c4c3)n2)[nH]n1 [Compound 202] | > 50 |
| Cc1cc(Nc2cc(N3CC(C#N)C3)nc(Sc3ccc(NC(=O)c4ccccc4Cl)cc3)n2)n[nH]1 [Compound 16] | > 50 |
| CCC(=O)Nc1ccc(Sc2nc(Nc3cc(C)n[nH]3)cc(N3CC(O)(CC(C)(C)C)C3)n2)cc1 [Compound 84] | > 50 |
| CC1=NN=C(Nc2cc(N3CCC3)nc(Sc3ccc(NC(=O)c4ccccc4Cl)cc3)n2)C1 [Compound 5] | > 50 |
| CCc1cc(Nc2cc(N3CCC3)nc(Sc3ccc(NC(=O)c4ccccc4Cl)cc3)n2)n[nH]1 [Compound 64] | > 50 |
| Cc1cc(Nc2cc(N3CCC3)nc(Sc3ccc(NC(=O)CC(F)(F)F)cc3)n2)n[nH]1 [Compound 40] | > 50 |
| CCC(=O)Nc1ccc(Sc2nc(Nc3cc(C4CC4)[nH]n3)cc(N3CC(O)(C4CC4)C3)n2)cc1 [Compound 102] | > 50 |
| Cc1cc(Nc2cc(N3CC(F)(C4CC4)C3)nc(Sc3ccc4c(c3)N(C)C(C(F)(F)F)N4)n2)[nH]n1 (centres unmarked) [Compound 156] | > 50 |
| CC1=NN=C(Nc2cc(N3CCC3)nc(Sc3ccc(NC(=O)c4cccc(Cl)c4F)cc3)n2)C1 [Compound 61] | > 50 |

molecular target: T1, Aurora-2 (Aurora A) (Homo sapiens, UniProt O14965); experiment: Aurora-2 (Aurora A) inhibition assay, coupled enzyme; format: biochemical; conditions: read-out: Aurora A kinase Ki value
T1 sequence (O14965 1-403): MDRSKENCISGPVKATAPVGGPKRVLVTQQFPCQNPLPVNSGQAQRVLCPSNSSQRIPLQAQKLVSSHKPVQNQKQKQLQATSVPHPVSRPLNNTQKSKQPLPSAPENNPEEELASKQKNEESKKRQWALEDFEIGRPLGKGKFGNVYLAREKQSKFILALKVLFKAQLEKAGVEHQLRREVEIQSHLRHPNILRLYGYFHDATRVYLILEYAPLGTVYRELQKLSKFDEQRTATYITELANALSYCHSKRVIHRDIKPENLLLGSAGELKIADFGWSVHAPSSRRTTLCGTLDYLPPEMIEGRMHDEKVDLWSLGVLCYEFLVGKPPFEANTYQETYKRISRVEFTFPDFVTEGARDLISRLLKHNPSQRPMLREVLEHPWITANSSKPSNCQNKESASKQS
Description: Assays were carried out in a mixture of 100 mM Hepes (pH7.5), 10 mM MgCl2, 1 mM DTT, 25 mM NaCl, 2.5 mM phosphoenolpyruvate, 300 μM NADH, 30 μg/ml pyruvate kinase and 10 μg/ml lactate dehydrogenase. […] Assays were carried out at 30° C. and in the presence of 40 nM Aurora-2.
The plate was preincubated for 10 minutes at 30° C. and the reaction initiated by addition of 10 μl of Aurora-2. Initial reaction rates were determined with a Molecular Devices SpectraMax Plus plate reader over a 10 minute time course. IC50 and Ki data were calculated from non-linear regression analysis using the Prism software package (GraphPad Prism version 3.0cx for Macintosh, GraphPad Software, San Diego Calif., USA).

| SMILES | Ki [nM] |
| --- | --- |
| Cc1cc(Nc2cc(N3CCC3)nc(Sc3ccc(NC(=O)c4c(Cl)cccc4Cl)cc3)n2)n[nH]1 [Compound 46] | ≤ 1 |
| CCC(=O)Nc1ccc(Sc2nc(Nc3cc(C)n[nH]3)cc(N3CC(O)(CC(C)(C)C)C3)n2)cc1 [Compound 84] | ≤ 1 |
| CCc1cc(Nc2cc(N3CCC3)nc(Sc3ccc(NC(=O)c4ccccc4Cl)cc3)n2)n[nH]1 [Compound 64] | ≤ 1 |
| CCC(=O)Nc1ccc(Sc2nc(Nc3cc(C4CC4)[nH]n3)cc(N3CC(O)(C4CC4)C3)n2)cc1 [Compound 102] | ≤ 1 |

same assay, conditions: read-out: Aurora A kinase activity, Ki

| SMILES | Ki [nM] |
| --- | --- |
| Cc1cc(Nc2cc(N3CC(C)(C#N)C3)nc(Sc3ccc(NC(=O)c4ccccc4C(F)(F)F)cc3)n2)[nH]n1 [Compound 122] | < 25 |
| Cc1cc(Nc2cc(N3CCC3)nc(Sc3ccc(NC(=O)c4c(Cl)cccc4Cl)cc3)n2)n[nH]1 [Compound 46] | < 25 |
| Cc1cc(Nc2cc(N3CC(F)(C4CC4)C3)nc(Sc3ccc4nc(C)ccc4c3)n2)[nH]n1 [Compound 154] | < 25 |
| Cc1cc(Nc2cc(N3CC(F)(C4CC4)C3)nc(Sc3ccc4nc(C(F)(F)F)cn4c3)n2)[nH]n1 [Compound 190] | < 25 |
| Cc1cc(Nc2cc(N3CC(C)(O)C3)nc(Sc3ccc(NC(=O)c4ccccc4C(F)(F)F)cc3)n2)[nH]n1 [Compound 115] | < 25 |
| Cc1cc(Nc2cc(N3CCC3)nc(Sc3ccc(C(=O)N4CCCC4)cc3)n2)n[nH]1 [Compound 22] | < 25 |
| Cc1cc(Nc2cc(N3CC(F)(C4CC4)C3)nc(Sc3ccc4nc(C(F)(F)F)[nH]c4c3)n2)[nH]n1 [Compound 202] | < 25 |
| Cc1cc(Nc2cc(N3CC(C#N)C3)nc(Sc3ccc(NC(=O)c4ccccc4Cl)cc3)n2)n[nH]1 [Compound 16] | < 25 |
| CCC(=O)Nc1ccc(Sc2nc(Nc3cc(C)n[nH]3)cc(N3CC(O)(CC(C)(C)C)C3)n2)cc1 [Compound 84] | < 25 |
| Cc1cc(Nc2cc(N3CCC3)nc(Sc3ccc(NC(=O)c4ccncc4C(F)(F)F)cc3)n2)[nH]n1 [Compound 146] | < 25 |
| CC1=NN=C(Nc2cc(N3CCC3)nc(Sc3ccc(NC(=O)c4ccccc4Cl)cc3)n2)C1 [Compound 5] | < 25 |
| Cc1cc(Nc2nc(Sc3ccc(NC(=O)c4ccccc4Cl)cc3)nc(N3CCC3)c2F)[nH]n1 [Compound 192] | < 25 |
| CCc1cc(Nc2cc(N3CCC3)nc(Sc3ccc(NC(=O)c4ccccc4Cl)cc3)n2)n[nH]1 [Compound 64] | < 25 |
| Cc1cc(Nc2cc(N3CC(OC(C)(C)C)C3)nc(Sc3ccc(NC(=O)c4ccccc4Cl)cc3)n2)[nH]n1 [Compound 66] | < 25 |
| CCC(=O)Nc1ccc(Sc2nc(Nc3cc(C)n[nH]3)cc(N3CC4(C3)OCC4(C)C)n2)cc1 [Compound 92] | < 25 |
| Cc1cc(Nc2nc(Sc3ccc(NC(=O)CC(F)(F)F)cc3)nc(N3CC(F)(C4CC4)C3)c2F)[nH]n1 [Compound 178] | < 25 |
| Cc1cc(Nc2cc(N3CCC3)nc(Sc3ccc(NC(=O)Cc4ccccc4)cc3)n2)n[nH]1 [Compound 35] | < 25 |
| Cc1cc(Nc2cc(N3CCC3)nc(Sc3ccc(NC(=O)CC(F)(F)F)cc3)n2)n[nH]1 [Compound 40] | < 25 |
| CCC(=O)Nc1ccc(Sc2nc(Nc3cc(C4CC4)[nH]n3)cc(N3CC(O)(C4CC4)C3)n2)cc1 [Compound 102] | < 25 |
| Cc1cc(Nc2cc(N3CC(F)(C4CC4)C3)nc(Sc3ccc4c(c3)N(C)C(C(F)(F)F)N4)n2)[nH]n1 (centres unmarked) [Compound 156] | < 25 |
| Cc1cc(Nc2cc(N3CCC3)nc(Sc3ccc(NC(=O)Cc4ccccc4Cl)cc3)n2)[nH]n1 [Compound 57] | < 25 |
| CC1=NN=C(Nc2cc(N3CCC3)nc(Sc3ccc(NC(=O)c4cccc(Cl)c4F)cc3)n2)C1 [Compound 61] | < 25 |
